# Measurements: the supplement of paper PMC10338343
# ± gives the standard deviation. The list shows a part of the results, in another mix than the full data. The uncertainty is large for many entries.
# Tested on: MIWI (PIWIL1) piRISC loaded with piRNA #1 (30 nt)
# Assay: pre-steady-state target cleavage rate (min^-1); MIWI and MILI are mouse PIWI proteins and EfPiwi is from a freshwater sponge; tags in brackets are library labels; higher = faster piRNA-guided slicing of the target
# Conditions: guide: piRNA #1 5'p-UGAGGUAGUAGGUUGUAUAGUAUCCAGAGG; auxiliary factor: 500 nM mouse GTSF1
# Procedure, shortened: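 Cleave-'n-Seq: a transcribed, DNA-blocked target RNA library (0.1 nM) was mixed with 1 nM active affinity-purified piRISC carrying one synthetic guide, with or without 500 nM GTSF1 partner protein, in HEPES–potassium acetate buffer at 33 °C for 0–8 or 0–960 min. Uncleaved targets were sequenced and normalised to depth and to weakly complementary targets. Three trials were pooled, and k3 was capped at 0.0001 min^-1. The pre-steady-state cleavage rate came from a burst-and-steady-state fit.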
row,Sequence,pre-steady-state target cleavage rate
1,GCUCUGGAUACUAUACAACCUACUAUCUCA,2.32 ± 0.24
2,GGAGACCUAUCUAUACAAGGAACUACCUCA,0.00153 ± 0.0027
3,GGAGACCUAUGAUAUGUUCCUACAUGCUCA,0.00027 ± 0.017
4,GGAGACCUAUGAUUACAACCUACUACCUAA,0.00042 ± 0.0078
5,CCUCCGGAUACUAUACAACCUACUACCUCA,2.08 ± 0.14
6,GGAGACCUAUGAUUAUAACCUACUACCUCA,0.00184 ± 0.004
7,GGUCUCGAUACUAUUCAACCUACUACCUCA,1.86 ± 0.12
8,GGAGACCUAUGAUAUCAUGGUACUACCUCA,0.00045 ± 0.0046
9,GGACUGGAUACUAUACAACCUACAACCUGA,0.00162 ± 0.0048
10,GGAGACCUAUGAUAUGUACGUUCUACCUCA,0.000125 ± 0.024
11,CCUCUGGAUACUAUACAACCUACUACUUCA,2.32 ± 0.16
12,GGAGACCAUACUAAACAACCUACUUCCUCA,0.195 ± 0.024
13,GGUCUGGAUACUAUACAACUCUACUACCUCA,0.000177 ± 0.016
14,GGAGAGCAUACUAUACAACGUACUACCUCA,0.557 ± 0.036
15,GGACUGGAUACUAUACAACCAUACUACCUCA,0.00173 ± 0.0058
16,GGAGACCUAUCAAUUCAACCUACUACCUCA,0.000639 ± 0.0064
17,CCUCUGGAUACUAUACAACCUAUUACCUCA,2.07 ± 0.13
18,CCUCUGGAUACUAUACAACCAUGAUGGAGA [g11:g30:cont:t1A],0.00303 ± 0.0049
19,GGAGACCUAUGAAUAUAACCUACUACCUCA,0.0016 ± 0.003
20,GCUCUGGAUACUAUACAACCUACUACCUAA,1.83 ± 0.12

row,Sequence,pre-steady-state target cleavage rate
1,GGACUGGAUACUAUACAAACCUACUACCUCA,0.0025 ± 0.0038
2,GGAGACCUAUGAUAUGUUCCUACUAGGACA,0.000156 ± 0.026
3,GGUCUUGAUACUAUACAACCUACUACCUCA,1.87 ± 0.11
4,CCUGUGCAUACUAUACAACCUACUACCUCA,2.3 ± 0.15
5,GGAGACCUAUGAUUACAACCUACAUCCUCA,0.00173 ± 0.0033
6,GGCCUGGAUACUAUACAACCUACUACCUCA,1.74 ± 0.098
7,GGACUGGAUAGUAUACAACCUUCUACCUCA,0.575 ± 0.045
8,GGUCUGGAUACUAUACAACCUGACUACCUCA,0.00228 ± 0.0023
9,GCUCUGCAUACAAUACAACCUACUACCUCA,1.82 ± 0.13
10,GGAGACCUAUGAUUGACAACCUACUACCUCA,0.00382 ± 0.0039
11,GGAGACCUAUGAAUACUACCUACUAGCUCA,0.000134 ± 0.013
12,GGAGACCUAUGAUUACAACCUACUAACCUCA,0.00152 ± 0.0045
13,GGACUGGAUACUAUAGAACCUACUUCCUCA,0.000396 ± 0.014
14,GGUCUGGAUACUAUACAACCUACUAGGAGA [g6:g28:cont:t1A],0.000205 ± 0.016
15,CCUCUGGAUACUUUACAACCUACUACCUGA,0.715 ± 0.1
16,CCUCUGGUUACUAUACAACCUACUACCACA,1.79 ± 0.14
17,GCUCUGGAUACUAUACAACCUACGACCUCA,1.22 ± 0.083
18,GGAGACCUAUGAAUACAUCCUACUACCUGA,0.000324 ± 0.0048
19,GCUCUGGAUACUAUACAACCGUACUACCUCA,0.00396 ± 0.0043
20,GGUCUGGAUACUAUACAACCUACAUGGAGA [g8:g28:cont:t1A],0.00011 ± 0.034

# Reprinted from the listing (2 entries):
row,Sequence,pre-steady-state target cleavage rate
14,GGUCUGGAUACUAUACAACCUACUAGGAGA [g6:g28:cont:t1A],0.000205 ± 0.016
15,CCUCUGGAUACUUUACAACCUACUACCUGA,0.715 ± 0.1
